Measured values from PubChem BioAssay AID445 (National Center for Advancing Translational Sciences (NCATS), 2006).
This is one part of the list. Shown are side measurements of this screen, not its main read-out; they come without a call. Most of these compounds were active or inconclusive in the main read-out, so they are no random draw. Words in brackets tell the shape of the fitted curve; partial curves, single points and poor fits give uncertain potencies.

assay: IkB Signaling; settings: ABC-DLBCL IkBa-CBG/CBR dual luciferase ratio (green luciferase fused to IkBa over red control in OCI-Ly3 lymphoma cells), 4 h; measured here: control luc red channel unless noted
Method in brief: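 Luminescence ratio of IκBα-fused green versus native red beetle luciferase in OCI-Ly3 cells, 4 h post-doxycycline with compound; red signal alone, scaled from basal (0%) to zero light (-100%), flagged nonspecific or cytotoxic effects.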

SMILES | AC50
Fc1ccc(Nc2nc(SCc3ccc(Cl)cc3)nc3ccccc23)cc1 | 39.8 µM [falling, single point]
Cc1ccccc1C(=O)NCC(c1ccc(N(C)C)cc1)N1CCCC1 (stereo not given) | 0.501 µM [falling, full curve]
Cc1cccc(-c2noc(-c3cccnc3NCc3ccccc3Cl)n2)c1 | 25.1 µM [falling, partial curve]
CCc1ccccc1N1CC(c2nc3ccccc3n2CCCCOc2ccccc2OC)CC1=O (stereo not given) | 12.6 µM [falling, partial curve]
O=C1CCc2cc(S(=O)(=O)NC(C(=O)Nc3ccc(F)cc3)c3ccccc3)ccc2N1 (stereo not given) | 10 µM [falling, partial curve]
Cc1cccc(N2CCN(CC(=O)NCC3CCCCC3)CC2)c1C | 25.1 µM [falling, partial curve]
CC(C)c1cnc2c(c1SCc1ccc([N+](=O)[O-])cc1)c(=O)n(C)c(=O)n2C | 25.1 µM [falling, partial curve]
CN(CCCNC(=O)c1cc2c(Cl)nc3ccccc3c2s1)Cc1ccccc1 | 25.1 µM [falling, single point]
COC(=O)c1c(NC(=O)c2cc3ccccc3c(=O)o2)sc2c1CCCC2 | 10 µM [falling, partial curve]
CC(=O)c1cccc(NC(=O)C(C)n2c(=O)cc(C)c3c(C)nn(-c4ccccc4)c32)c1 (stereo not given) | 0.794 µM [rising, partial curve]
COc1ccc(CCNC(=O)c2ccc(Nc3nc4ccccc4n4nnnc34)cc2)cc1OC | 3.16 µM [falling, partial curve]
Cc1cccc(N(CC(O)Cn2c3ccccc3c3ccccc32)S(=O)(=O)c2ccc(F)cc2)c1 (stereo not given) | 7.94 µM [falling, partial curve]
O=C1CC(c2ccco2)CC(O)=C1C=NCC1NCCc2ccccc21 (stereo not given) | 20 µM [rising, partial curve] [measured here: IkB-luc green channel]
CCOC(=O)N1CCN(C(=O)CCCn2nc(C)c3sc4ccccc4c3c2=O)CC1 | 7.94 µM [falling, partial curve]
Cc1ccc2onc(CC(=O)N3CCN(c4ccc(F)cc4)CC3)c2c1 | 25.1 µM [falling, partial curve]
CCOC(=O)c1[nH]c2c(c1Cc1ccccc1C)C(=O)CC(c1cc(OC)ccc1OC)C2 (stereo not given) | 6.31 µM [falling, full curve]
Cc1ccc(-c2nc(CS(=O)(=O)CC(=O)N3CCc4ccccc4C3)c(C)o2)cc1 | 15.8 µM [falling, partial curve]
O=C(COc1ccccc1)NCCc1csc(-c2ccc(Cl)cc2)n1 | 3.16 µM [falling, single point]
O=C(CSc1nc2scc(-c3ccco3)c2c(=O)n1-c1ccccc1)N1CCOCC1 | 6.31 µM [rising, full curve] [measured here: IkB-luc green channel]
CCc1nn2c(=O)cc(COc3ccc(/C=C(\C#N)C(=O)Nc4ccc(F)cc4)cc3OC)nc2s1 | 5.01 µM [rising, partial curve]

A second format for some results above.
SMILES	AC50
O=C1CCc2cc(S(=O)(=O)NC(C(=O)Nc3ccc(F)cc3)c3ccccc3)ccc2N1 (stereo not given)	10 µM [falling, partial curve]
CC(C)c1cnc2c(c1SCc1ccc([N+](=O)[O-])cc1)c(=O)n(C)c(=O)n2C	25.1 µM [falling, partial curve]
COc1ccc(CCNC(=O)c2ccc(Nc3nc4ccccc4n4nnnc34)cc2)cc1OC	3.16 µM [falling, partial curve]
CCc1nn2c(=O)cc(COc3ccc(/C=C(\C#N)C(=O)Nc4ccc(F)cc4)cc3OC)nc2s1	5.01 µM [rising, partial curve]

Continuation.

SMILES | AC50
CCCCOc1ccc(S(=O)(=O)NCc2csc(C)n2)cc1 | 10 µM [falling, partial curve]
Cc1cccc(N2C(N)=C(C#N)C(C#N)(C#N)C2c2ccccc2)c1 (stereo not given) | 39.8 µM [falling, single point]
CCOC(=O)c1ccc(NC(=O)C2CCN(S(=O)(=O)c3ccc4c(c3)CCCC(=O)N4)CC2)cc1 | 20 µM [falling, single point]
Cc1ccccc1-c1nn2c(=O)cc(CN3CCN(C(=O)/C=C/c4ccccc4)CC3)nc2s1 | 20 µM [falling, single point]
CCc1ccc(NC(=O)Cn2c(=O)n(CCC(=O)N3CCc4ccccc4C3)c(=O)c3ccccc32)cc1 | 39.8 µM [falling, single point]
Cc1cc(C)cc(NC(=O)N2CCC3(CC2)Oc2ccccc2C(=O)N3Cc2ccccc2F)c1 | 20 µM [falling, partial curve, poor fit]
COc1ccc(Br)c(C(=O)Nc2cc3c(cc2N2CCOCC2)n(C)c(=O)n3C)c1 | 0.0126 µM [rising, full curve, poor fit]
CCOc1ccc(NC(=O)c2c(NCc3cccnc3)sc3c2CCCC3)cc1 | 39.8 µM [falling, single point]
CCOC(=O)c1ccc(CN(Cc2ccc(F)cc2)S(=O)(=O)c2ccc(F)c(C(=O)Nc3ccc(Cl)cc3F)c2)cc1 | 12.6 µM [falling, partial curve]
COc1cccc(N2CCN(C(=O)c3cccc(-n4c(C)nc5cccnc54)c3)CC2)c1 | 25.1 µM [falling, single point]
O=C(O)CCCC(=O)Nc1ccc(Br)cc1C(=O)O | 6.31 µM [falling, partial curve]
COc1ccc(CCn2c(=O)c3cccnc3n(CC(=O)Nc3ccc(C)c(F)c3)c2=O)cc1OC | 15.8 µM [falling, partial curve]
CC1(C)CC2CC(C)(CN2CC(=O)C(C#N)c2ccccc2)C1 (stereo not given) | 7.94 µM [falling, single point]
Cc1sc2c(c1C)c(=O)n(-c1ccc(Cl)cc1)c(=O)n2Cc1cc(=O)n2ccccc2n1 | 6.31 µM [falling, full curve, poor fit]
Cc1ccc2nc(N3CCC(C(=O)N4CCN(c5cccc(C)c5C)CC4)CC3)[nH]c2c1 | 39.8 µM [falling, single point]
FC(F)(F)c1cccc(-c2nc3nc(Cl)c(Cl)nc3[nH]2)c1 | 0.501 µM [falling, full curve]
COc1ccc(C2C(C(N)=O)=C(C)Nc3nc(SCc4ccccc4Cl)nn32)cc1OC (stereo not given) | 25.1 µM [falling, single point]
Cc1ccc(CNC(=O)c2nc(SCc3ccccc3F)ncc2Cl)cc1 | 6.31 µM [falling, full curve, poor fit]
CCOC(=O)c1ccc(N2C(=O)c3n[nH]c(C)c3C2c2cccc(Br)c2)cc1 (stereo not given) | 20 µM [falling, single point]
COc1ccc(CNC(=O)Cn2nnc(-c3ccc(C(F)(F)F)cc3)n2)cc1 | 0.0126 µM [falling, full curve, poor fit]

SMILES | AC50
CC1CCN(S(=O)(=O)c2ccc3c(c2)oc(=O)n3CC(=O)NCc2ccc3c(c2)OCO3)CC1 | 15.8 µM [falling, partial curve]
O=c1cc(-c2ccccc2)n2c(SCc3ccc(Cl)cc3)nnc2[nH]1 | 39.8 µM [falling, single point]
CCc1nc2ccccc2n1Cc1ccc(OC)c(OC)c1 | 5.01 µM [rising, partial curve]
O=C(c1ccc(CSCc2ccccc2F)o1)N1CCN(c2ccc(N3CCOCC3)nn2)CC1 | 6.31 µM [falling, partial curve]
COc1ccc2ccccc2c1/C=C\C(=O)c1ccccc1 | 7.94 µM [rising, single point] [measured here: IkB-luc green channel]
COCCNc1ncnc2c1c(-c1ccccc1)cn2-c1ccc(C)c(Cl)c1 | 25.1 µM [falling, single point]
O=C(NCc1ccco1)c1ccc2c(c1)N(Cc1ccccc1)C(=O)c1ccccc1S2(=O)=O | 7.94 µM [falling, full curve, poor fit]
Cc1ccc(CNC(=O)c2oc3c(c2C)-c2nn(Cc4ccc(Cl)cc4)cc2CC3)cc1 | 12.6 µM [falling, partial curve]
Cc1cc(S(=O)(=O)C(CNC(=O)c2ccc(OC(C)C)cc2)c2cccs2)ccc1F (stereo not given) | 31.6 µM [falling, single point]
CC1CCCN(S(=O)(=O)c2ccc(NC(=O)c3cccc(-n4cnnn4)c3)cc2)C1 (stereo not given) | 39.8 µM [falling, single point]
COc1ccc(N2CCN(Cc3nc4c(c(=O)[nH]c(=O)n4C)n3Cc3ccc(Cl)cc3)CC2)cc1 | 31.6 µM [falling, single point]
COc1ccc(CCNC(=O)c2c(O)c3cccc4c3n(c2=O)CC4)cc1 | 25.1 µM [falling, partial curve]
Cc1cccc(-c2nnc(SCc3cc(=O)c4cccc(Cl)c4[nH]3)n2C)c1 | 39.8 µM [falling, single point]
COc1cccc2c1ncc1c(-c3ccc(C)cc3)nn(-c3cccc([N+](=O)[O-])c3)c12 | 31.6 µM [rising, partial curve]
COc1ccc(NC(=O)N(CCC(C)C)C(C)c2cccs2)c(OC)c1 (stereo not given) | 20 µM [falling, partial curve]
Cc1ccc(C2CCN(C(=O)c3cnn(-c4cccc(Cl)c4)c3C3CCN(C(=O)OC(C)(C)C)CC3)C2)cc1 (stereo not given) | 15.8 µM [falling, partial curve]
Cc1cc(=O)[nH]c2nnc(SCC(=O)Nc3ccc(OC(F)(F)F)cc3)n12 | 3.98 µM [rising, partial curve]
COc1ccc(OC)c(NC(=O)c2cc(-c3ccc(Cl)s3)nc3ccccc23)c1 | 2.51 µM [falling, full curve]
COc1ccc(OC)c(S(=O)(=O)N2CCC(C(=O)Nc3cccc(C(F)(F)F)c3)CC2)c1 | 15.8 µM [falling, partial curve]
COC(=O)CN1C(=O)C2(C(C#N)=C(N)Oc3c2c(C)nn3-c2ccccc2)c2ccccc21 (stereo not given) | 12.6 µM [falling, partial curve]
